Measured values: paper PMC9033807
These are yes or no findings as the source states them, for the method shown. Some results given as binding are weak or reduced against the parent protein; the word gives no strength. Tags and fused reporters may be left off the sequences shown.

The chains behind the UniProt entries cited, without tags or fusion partners.
UniProt Q9UKV8: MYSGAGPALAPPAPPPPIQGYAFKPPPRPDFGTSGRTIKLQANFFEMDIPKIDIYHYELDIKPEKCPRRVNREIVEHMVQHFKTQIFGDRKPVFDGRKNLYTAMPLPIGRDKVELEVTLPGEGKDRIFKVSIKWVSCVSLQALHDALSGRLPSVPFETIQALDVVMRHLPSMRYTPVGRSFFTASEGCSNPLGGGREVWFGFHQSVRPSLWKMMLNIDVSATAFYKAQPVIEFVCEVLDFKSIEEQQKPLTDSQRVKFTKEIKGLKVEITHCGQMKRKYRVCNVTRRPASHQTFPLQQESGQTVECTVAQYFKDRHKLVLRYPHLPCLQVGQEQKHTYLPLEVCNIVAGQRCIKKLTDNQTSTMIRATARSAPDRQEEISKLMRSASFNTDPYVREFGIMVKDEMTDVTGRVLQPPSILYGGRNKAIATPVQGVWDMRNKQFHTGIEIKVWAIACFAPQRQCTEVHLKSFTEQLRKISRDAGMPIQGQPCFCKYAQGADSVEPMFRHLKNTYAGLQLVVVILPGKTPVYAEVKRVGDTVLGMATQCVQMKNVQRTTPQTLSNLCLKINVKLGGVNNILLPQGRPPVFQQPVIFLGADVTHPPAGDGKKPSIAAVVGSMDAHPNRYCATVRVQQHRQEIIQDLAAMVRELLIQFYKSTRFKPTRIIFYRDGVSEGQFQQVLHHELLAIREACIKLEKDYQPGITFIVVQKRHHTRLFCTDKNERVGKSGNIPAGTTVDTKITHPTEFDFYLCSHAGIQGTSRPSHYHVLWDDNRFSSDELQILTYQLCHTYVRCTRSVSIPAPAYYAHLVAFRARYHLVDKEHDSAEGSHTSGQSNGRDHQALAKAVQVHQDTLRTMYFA

Molecular target: T1, His-TAp63 (UniProt Q9H3D4)
T1 sequence: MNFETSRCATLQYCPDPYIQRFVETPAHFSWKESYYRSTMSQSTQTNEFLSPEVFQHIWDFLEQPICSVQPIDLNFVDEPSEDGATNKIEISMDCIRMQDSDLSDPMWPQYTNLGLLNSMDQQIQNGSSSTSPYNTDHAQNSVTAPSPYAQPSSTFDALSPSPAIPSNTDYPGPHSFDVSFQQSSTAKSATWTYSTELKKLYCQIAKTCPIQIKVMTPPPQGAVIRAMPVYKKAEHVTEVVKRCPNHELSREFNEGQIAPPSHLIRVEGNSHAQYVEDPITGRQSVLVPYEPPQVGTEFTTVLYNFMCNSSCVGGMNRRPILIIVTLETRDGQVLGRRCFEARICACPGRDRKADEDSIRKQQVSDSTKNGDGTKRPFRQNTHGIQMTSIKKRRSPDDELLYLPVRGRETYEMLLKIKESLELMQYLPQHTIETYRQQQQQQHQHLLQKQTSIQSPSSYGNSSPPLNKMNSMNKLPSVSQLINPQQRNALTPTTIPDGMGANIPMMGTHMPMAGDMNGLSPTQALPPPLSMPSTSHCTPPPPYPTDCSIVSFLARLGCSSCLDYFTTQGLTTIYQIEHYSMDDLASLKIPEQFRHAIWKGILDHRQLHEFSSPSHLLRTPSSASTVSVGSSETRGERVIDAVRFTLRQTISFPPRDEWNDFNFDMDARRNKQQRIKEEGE
Assay: pull-down; in vitro Ni2+ pull-down; His-TAp63 held, GST-Ago2 detected by immunoblotting with an antibody against GST; proteins purified from E. coli; both purified

Substance: GST-Ago2 (from UniProt Q9UKV8 1-859)
- binding: binds
